This is an account of results in article PMC11047997.

Amino acid sequences for entries named in this document (tags omitted). A change or cut given only in a name is not applied to a line headed by its entry.
UniProt Q969H0: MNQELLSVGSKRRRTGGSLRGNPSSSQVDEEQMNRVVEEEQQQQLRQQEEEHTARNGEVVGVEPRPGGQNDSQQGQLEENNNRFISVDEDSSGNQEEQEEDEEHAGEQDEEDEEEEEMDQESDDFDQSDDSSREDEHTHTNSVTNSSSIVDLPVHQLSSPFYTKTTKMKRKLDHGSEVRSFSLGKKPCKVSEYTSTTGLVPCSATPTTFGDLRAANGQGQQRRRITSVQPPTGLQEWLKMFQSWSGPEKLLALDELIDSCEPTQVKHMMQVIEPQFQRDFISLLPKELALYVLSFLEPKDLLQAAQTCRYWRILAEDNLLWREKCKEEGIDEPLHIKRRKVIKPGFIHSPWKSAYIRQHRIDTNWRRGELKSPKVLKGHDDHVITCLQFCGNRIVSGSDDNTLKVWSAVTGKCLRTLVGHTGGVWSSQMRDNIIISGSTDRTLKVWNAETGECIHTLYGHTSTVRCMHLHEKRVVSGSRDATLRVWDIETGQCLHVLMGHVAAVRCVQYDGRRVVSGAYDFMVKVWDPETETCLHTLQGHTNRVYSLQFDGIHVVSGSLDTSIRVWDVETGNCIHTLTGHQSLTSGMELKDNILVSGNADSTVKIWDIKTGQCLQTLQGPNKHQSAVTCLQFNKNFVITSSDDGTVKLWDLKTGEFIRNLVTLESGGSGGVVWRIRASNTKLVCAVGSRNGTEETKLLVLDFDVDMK

Results are given in words; binding and its absence hold for the method and conditions named. In cells and extracts the contact can be indirect. Binding calls can cover weak binding; strength is not graded here. Where a sequence is shown, tags or fusion partners need not be part of it.

For this assay, the target named is T1, Flag-IL-17RA full-length (human) (UniProt Q96F46).
T1 sequence: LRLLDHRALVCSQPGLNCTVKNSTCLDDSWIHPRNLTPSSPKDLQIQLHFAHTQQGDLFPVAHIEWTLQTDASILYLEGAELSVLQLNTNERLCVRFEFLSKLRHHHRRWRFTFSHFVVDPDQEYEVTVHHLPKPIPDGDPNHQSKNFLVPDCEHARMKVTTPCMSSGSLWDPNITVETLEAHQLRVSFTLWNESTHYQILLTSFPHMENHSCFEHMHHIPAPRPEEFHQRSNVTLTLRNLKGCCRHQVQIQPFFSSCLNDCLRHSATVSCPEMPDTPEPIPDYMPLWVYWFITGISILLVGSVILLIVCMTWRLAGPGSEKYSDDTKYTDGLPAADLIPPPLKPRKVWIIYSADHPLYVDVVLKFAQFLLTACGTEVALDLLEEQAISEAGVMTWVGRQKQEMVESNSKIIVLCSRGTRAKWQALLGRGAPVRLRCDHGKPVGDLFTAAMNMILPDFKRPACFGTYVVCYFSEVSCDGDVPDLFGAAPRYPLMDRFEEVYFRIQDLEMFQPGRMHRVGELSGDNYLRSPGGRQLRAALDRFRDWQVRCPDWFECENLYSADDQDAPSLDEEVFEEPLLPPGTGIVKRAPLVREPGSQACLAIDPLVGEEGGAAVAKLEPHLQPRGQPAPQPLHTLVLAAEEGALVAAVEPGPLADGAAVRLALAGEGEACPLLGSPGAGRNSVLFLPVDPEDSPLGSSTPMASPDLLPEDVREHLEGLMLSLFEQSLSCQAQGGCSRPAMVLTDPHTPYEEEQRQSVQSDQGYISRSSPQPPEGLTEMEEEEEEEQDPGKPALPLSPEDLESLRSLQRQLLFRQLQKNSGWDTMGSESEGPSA
Nature of the assay: co-IP; HEK293T cells co-transfected, lysed 48 h later in IP lysis buffer (50 mM Tris-HCl pH 7.5, 0.5% Nonidet P-40, 1 mM EDTA, 150 mM NaCl, 1 mM DTT); immunoprecipitation with anti-Flag M2, anti-c-Myc or anti-FBXW7 antibody and rProtein A agarose at 4 °C overnight; Western blot; reciprocal in Figure 2. Background: A western blot detects proteins with antibodies after separation by electrophoresis.

In the case of “Myc-FBXW7 ∆F box (from UniProt Q969H0) (enzyme)”, the binding result is “binds”.
